Experiment [1] concerns the target MpCBL-A-LgBiT (Marchantia polymorpha). Kind of experiment: split reporter.
Experiment [2] has as its target MpCBL-B-LgBiT (Marchantia polymorpha). Description: split reporter.
The target in experiment [3] is MpCBL-C-LgBiT (Marchantia polymorpha). Kind of experiment: split reporter.
For experiment [4], the target named is GAL4-BD-MpCBL-C (Marchantia polymorpha). Kind of experiment: two-hybrid.
The target in experiment [5] is GAL4-BD-MpCBL-B (Marchantia polymorpha). Kind of experiment: two-hybrid.

No constants are given. Whether binding was seen depends on the method and setting. For some assays here: A result given as binding can be weak or reduced; the word gives no strength. For some assays here: Sequences can lack the tags named with a protein. For some assays here: In cells and extracts the contact can be indirect.

B1: SmBiT-AtCIPK24 (protein, UniProt Q9LDI3 1-446)
chain: MTKKMRRVGKYEVGRTIGEGTFAKVKFARNTDTGDNVAIKIMAKSTILKNRMVDQIKREISIMKIVRHPNIVRLYEVLASPSKIYIVLEFVTGGELFDRIVHKGRLEESESRKYFQQLVDAVAHCHCKGVYHRDLKPENLLLDTNGNLKVSDFGLSALPQEGVELLRTTCGTPNYVAPEVLSGQGYDGSAADIWSCGVILFVILAGYLPFSETDLPGLYRKINAAEFSCPPWFSAEVKFLIHRILDPNPKTRIQIQGIKKDPWFRLNYVPIRAREEEEVNLDDIRAVFDGIEGSYVAENVERNDEGPLMMNAFEMITLSQGLNLSALFDRRQDFVKRQTRFVSRREPSEIIANIEAVANSMGFKSHTRNFKTRLEGLSSIKAGQLAVVIEIYEVAPSLFMVDVRKAAGETLEYHKFYKKLCSKLENIIWRATEGIPKSEILRTITF
Turning to B1, the binding entry in experiment [1] is “binds”; in experiment [2], “binds”; in experiment [3], “no binding”.

B2: GAL4-AD-AtCIPK24 (protein, UniProt Q9LDI3 1-446)
chain: B1 chain
In the case of B2, the binding entry in experiment [4] and in experiment [5] was “binds” throughout.
